Chains of the proteins cited; added tags and fusions are not shown. Lines headed by an entry give the natural chain unless they say otherwise; changes in a name come on top.
UniProt Q00987: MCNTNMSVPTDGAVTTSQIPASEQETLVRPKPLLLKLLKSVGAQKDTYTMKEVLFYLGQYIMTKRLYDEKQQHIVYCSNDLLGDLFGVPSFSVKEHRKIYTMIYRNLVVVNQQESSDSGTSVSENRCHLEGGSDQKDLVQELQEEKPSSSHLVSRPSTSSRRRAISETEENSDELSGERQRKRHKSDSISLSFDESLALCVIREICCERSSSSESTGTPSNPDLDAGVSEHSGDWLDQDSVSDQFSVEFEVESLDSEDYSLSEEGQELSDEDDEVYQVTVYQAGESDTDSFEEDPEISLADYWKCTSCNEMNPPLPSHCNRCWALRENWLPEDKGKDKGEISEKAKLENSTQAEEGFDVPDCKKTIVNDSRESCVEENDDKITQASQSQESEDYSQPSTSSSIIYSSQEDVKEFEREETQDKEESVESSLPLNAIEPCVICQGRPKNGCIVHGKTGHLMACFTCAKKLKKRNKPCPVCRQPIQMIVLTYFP

In paper doi:10.1101/2023.07.20.549453 (bioRxiv, 2023):

Biological target: T1, Human Dlk2 extracellular domain (Dlk2EC, residues 1-306) (human) (UniProt Q6UY11)
T1 sequence: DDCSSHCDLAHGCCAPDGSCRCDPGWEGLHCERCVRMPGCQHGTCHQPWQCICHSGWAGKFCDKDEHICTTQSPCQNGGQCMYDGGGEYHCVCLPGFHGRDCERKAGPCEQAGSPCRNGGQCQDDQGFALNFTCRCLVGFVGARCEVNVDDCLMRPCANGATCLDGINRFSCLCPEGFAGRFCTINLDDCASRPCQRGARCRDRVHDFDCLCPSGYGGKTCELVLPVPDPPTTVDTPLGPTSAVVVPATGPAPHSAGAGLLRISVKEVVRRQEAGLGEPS
Assay: SPR

| binding | Substance |
| --- | --- |
| no binding (tested: 200 nM) | Human Mdm2 C-ter (residues 334-491) (from UniProt Q00987-11) (domain or fragment) |
| binds | Human Mdm2 N-ter (residues 1-134) (from UniProt Q00987) (domain or fragment) |
| binds | Human Mdm2 central domain (residues 134-334) (from UniProt Q00987) (domain or fragment) |

No constants are given. Whether binding was seen depends on the method and setting. A result given as binding can be weak or reduced; the word gives no strength.
